Here are results for seven molecules from patent WO2007042289A2 (dated 2007).

These are yes or no findings as the source states them, for the method shown. Binding calls can cover weak binding; strength is not graded here.

Sequences and labels used below:
B1: PMP7E12 (VHH)
VHH: EVQLVESGGGLVQAGGSLRLSCTASGRTFENNAMAWFRQAAGKEREFVAGFSGSGGATYYAHSVEGRFTISRDNAKNTVDLQMNSLSLEDTAVYLCAARRKSGEVVFTIPARYDYWGQGTQVTVSS
notes: Anti-EGFR Nanobody
B2: 27-1-H7 (VHH)
VHH: EVQLVESGGGLVQAGGSLRLSCAASGRGAWAWFRQAPGKEREFVGGLSWSADSTYYADSVKGRFTISRDNAKNTVFLQMTNLKADDTAVYYCAAHRRPFASVFTTTRMYDYWGPGTQVTVSS
B3: PMP11C9 (VHH)
VHH: EVQLVESGGGLVQAGASLRLSCAASGRYFSDYNMAWFRQAPGKEREFVAHISWLGGRTYYRDSVKGRFTISRDNAKDTVYLQMNSLKPEDTAVYSCAAGSPYGTELPYTRIEQYAYWGQGTQVTVSS
B4: PMP9C1 (VHH)
VHH: EVQLVESGGGLVQAGGSLRLSCAASGRTFSGFAMGWFRQAPGKEREFVAAISWSGGSLLYVDSVKGRFTISRDNAKNTVHLQMNSLKPGDTAVYYCAAMVGPPPRSLDYGLGNHYEYDYWGQGTQVTVSS
notes: Anti-EGFR Nanobody; tag not described; also called Nanobody family X; Type C Nanobody
B5: PMP8B5 (VHH)
VHH: EVQLVESGGGLVQAGGSLRVSCVASIRSFSSYVVGWFRQAPGKDREFVAGIAWGDGITYYADSVKGRFTISRDHAKNTAYLQMNSLRPEDTAVYYCAVRPGMIITTIQATYGFWGQGTQVTVSS
B6: PMP9A7 (VHH)
VHH: EVQLVESGGGLVQAGGSLRLSCAVSGRTFSGDVMGWFRQAPGKEREFVAGFSRSTSTTHYADSVKGRFTISGDNAKNTVYLQMNSLKPEDTAVYYCAANSRSSWVIFTIKGQYDRWGQGTQVTVSS
B7: PMP11H6 (VHH)
VHH: AVQLVESGGGLVQAGGSLRLSCAASGRTFSTYTMAWFRQAPGKEREFVQGISRSDGGTYDADSVKGRFTISRDNAKNTVYLQMNSLKPEDTAVYFCAAANEYWVYVNPNRYTYWGRGTQVTVSS

This test has as its target T1, purified EGFR (Sigma) (human, UniProt P00533 25-1210, limits assumed).
T1 construct: Bought; purified from human A431 cells; also called solid phase coated EGFR
Turning to B1, the binding result is “binds”.
In the case of B2, the binding result is “binds”.
Consider B3, for which the binding result is “binds”.
Take B4: the binding entry is “binds”.
For the molecule B5, the binding result is recorded as “binds”.
The same measure for B6: “binds”.
For the molecule B7, the binding entry is recorded as “binds”.
